Test system: HEI-OC1 cells
Test: Caspase-Glo 3/7 assay in cisplatin-treated HEI-OC1 cells
Details: HEI-OC1, read-out: calculated IC50, percentage of protection from caspase-3/7 activity

O=C(CCCCCCC(=O)Nc1ccccc1)NO [Vorinostat]
IC50: 14.4 µM
